Record: PubChem BioAssay AID1224830 (NIAID, 2016)

- Purpose: 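Genes whose knock-down alters the TNF-alpha reporter response to LPS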 (primary screen)
- Cells: human THP-1 monocytic leukaemia cells, TNF dual-luciferase reporter clone, PMA-differentiated to macrophage-like cells
- Knock-down reagent: siRNA pool against human genes, 50 nM
- Time to read-out: LPS for 4 h, given about 3 days after siRNA transfection
- Conditions: bacterial LPS (TLR4 ligand), 10 ng/ml
- Measured: 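TNF firefly reporter luminescence divided by renilla, normalised to the plate median, then turned into a robust z-score for each replicate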
- Scale: TNF reporter robust z-score: higher = stronger TNF reporter response to LPS
- Call rule: 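Each well counts as active if its z-score is over 2.8 or under -1.5; controls are left without a call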
The deposit covers about 18,000 reagents; this is a random part of them. About 2,900 of all reagents (16%) count as active. 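Calls are made per well; low scores hint the gene aids the LPS response, high scores that it dampens it.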 Entries without a mark were called inactive. Repeated entries: four replicate wells of each siRNA pool.

PELI1 scored TNF reporter robust z-score -1.01.
With knock-down of PELI1 the results were TNF reporter robust z-score -0.73.
After knock-down of PELI1, the record shows TNF reporter robust z-score -0.57.
PELI1 scored TNF reporter robust z-score 0.04.
For TMIGD1, the values are TNF reporter robust z-score -0.55.
After knock-down of TMIGD1, the screen gave TNF reporter robust z-score -0.08.
Against TMIGD1, the entry reads TNF reporter robust z-score -0.42.
Depletion of TMIGD1 gave: TNF reporter robust z-score -0.7.

Laid out differently: results already given
gene symbol,TNF reporter robust z-score
PELI1,-0.73
PELI1,-0.57
PELI1,0.04

Further records:
For ARLN the deposit lists TNF reporter robust z-score -0.8.
For ARLN the deposit lists TNF reporter robust z-score 0.34.
ARLN showed TNF reporter robust z-score 0.62.
For ARLN, the values are TNF reporter robust z-score 1.4.
With knock-down of PREB the results were TNF reporter robust z-score -1.39.
After knock-down of PREB, the record shows TNF reporter robust z-score -0.43.
PREB gave TNF reporter robust z-score -0.65.
Against PREB, the entry reads TNF reporter robust z-score 0.67.
Depletion of SLC24A3 gave: TNF reporter robust z-score -1.63 (active).
With knock-down of SLC24A3, the record shows TNF reporter robust z-score -1.29.
For SLC24A3, the entry reads TNF reporter robust z-score -1.78 (active).
For SLC24A3, the entry reads TNF reporter robust z-score -1.33.
